Drawing on article PMC2642718, this text covers binding for one molecule.

This assay has as its target StcE fused to a chitin binding domain (StcE-CBD) (Escherichia coli O157:H7). The assay can be described thus: pull-down; StcE-CBD bound to chitin beads incubated with lysed dHL-60 cells, in the presence of EDTA; chitin beads alone as control; immunoblot for CD43 (L10) or CD45 (HI-30); only the target purified. For orientation: A western blot detects proteins with antibodies after separation by electrophoresis.

Results are given in words; binding and its absence hold for the method and conditions named. Binding seen in cells or lysates may run through a third protein. Binding calls can cover weak binding; strength is not graded here.

B1: CD43 (leukosialin), endogenous, in cell lysates (protein, UniProt P16150 20-400)
chain: STTAVQTPTSGEPLVSTSEPLSSKMYTTSITSDPKADSTGDQTSALPPSTSINEGSPLWTSIGASTGSPLPEPTTYQEVSIKMSSVPQETPHATSHPAVPITANSLGSHTVTGGTITTNSPETSSRTSGAPVTTAASSLETSRGTSGPPLTMATVSLETSKGTSGPPVTMATDSLETSTGTTGPPVTMTTGSLEPSSGASGPQVSSVKLSTMMSPTTSTNASTVPFRNPDENSRGMLPVAVLVALLAVIVLVALLLLWRRRQKRRTGALVLSRGGKRNGVVDAWAGPAQVPEEGAVTVTVGGSGGDKGSGFPDGEGSSRRPTLTTFFGRRKSRQGSLAMEELKSGSGPSLKGEEEPLVASEDGAVDAPAPDEPEGGDGAAP
With B1, the binding entry is on record as “binds”.
